Assay results: publication PMC9454964

Chains of the proteins cited; added tags and fusions are not shown. Lines headed by an entry give the natural chain unless they say otherwise; changes in a name come on top.
UniProt O95817: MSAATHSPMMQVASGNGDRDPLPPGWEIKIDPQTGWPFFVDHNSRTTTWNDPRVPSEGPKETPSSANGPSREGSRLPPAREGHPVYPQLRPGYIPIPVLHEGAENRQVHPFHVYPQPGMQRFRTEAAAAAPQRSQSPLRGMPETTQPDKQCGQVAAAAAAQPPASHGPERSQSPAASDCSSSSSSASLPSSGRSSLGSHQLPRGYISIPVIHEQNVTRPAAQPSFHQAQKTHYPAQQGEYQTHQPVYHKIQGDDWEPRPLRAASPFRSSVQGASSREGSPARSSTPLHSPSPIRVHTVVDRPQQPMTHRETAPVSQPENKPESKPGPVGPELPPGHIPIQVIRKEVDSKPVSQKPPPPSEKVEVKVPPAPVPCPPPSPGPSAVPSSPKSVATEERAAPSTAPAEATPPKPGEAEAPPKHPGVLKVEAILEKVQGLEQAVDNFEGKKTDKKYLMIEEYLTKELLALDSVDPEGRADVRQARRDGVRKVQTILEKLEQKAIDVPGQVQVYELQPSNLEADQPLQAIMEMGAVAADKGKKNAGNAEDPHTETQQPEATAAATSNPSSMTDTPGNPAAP
UniProt Q99732: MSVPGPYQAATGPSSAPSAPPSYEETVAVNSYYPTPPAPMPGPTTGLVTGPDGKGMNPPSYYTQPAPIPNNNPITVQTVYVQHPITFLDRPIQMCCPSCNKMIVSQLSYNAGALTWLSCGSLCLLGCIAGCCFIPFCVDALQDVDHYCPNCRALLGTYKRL

Molecular target: His-tagged Bag3 ΔWW (deletion of WW domain) (UniProt O95817)
Assay: pull-down; transfected 293T cells fixed with 1.2% formaldehyde, lysed (DPBS, 0.5% Triton X-100, 10 mM imidazole), His-tagged Bag3 held on HisPur Ni-NTA resin at 4 °C, washed, eluted with 300 mM imidazole; associated LITAF detected by immunoblot

Substance: lipopolysaccharide TNFα factor (LITAF) (from UniProt Q99732 1-161)
- binding: binds

Results are given in words; binding and its absence hold for the method and conditions named. In cells and extracts the contact can be indirect. Binding calls can cover weak binding; strength is not graded here.
